According to US7446102B2 (priority 2004, dated 2008):

Assay: general procedure: solution-phase peptide synthesis; EDC/HOBt; HATU/diisopropylethylamine
Conditions: late stage modification step

## (8S,11S,14S)-14-Amino-N-((1S,3R)-4-amino-1-{[(2-aminoethyl)amino]carbonyl}-3-hydroxybutyl)-11-[3-aminopropyl]-5,17-dihydroxy-10,13-dioxo-9,12-diazatricyclo[14.3.1.1^2,6]henicosa-1(20),2(21),3,5,16,18-hexaene-8-carboxamide tetrahydrochloride
  step yield: 59%

## (8S,11S,14S)-14-Amino-N-{1-(2-aminoethyl)-3-[(2-aminoethyl)amino]-3-oxopropyl}-11-(3-aminopropyl)-5,17-dihydroxy-10,13-dioxo-9,12-diazatricyclo[14.3.1.1^2,6]henicosa-1(20),2(21),3,5,16,18-hexaene-8-carboxamide tetrahydrochloride
Of theory
  step yield: 58% of theory

## N^2-{[(8S,11S,14S)-14-[(tert-Butoxycarbonyl)amino]-11-{3-[(tert-butoxycarbonyl)amino]propyl}-5,17-dihydroxy-10,13-dioxo-9,12-diazatricyclo[14.3.1.1^2,6]henicosa-1(20),2(21),3,5,16,18-hexaen-8-yl]carbonyl}-L-ornithyl-N-(2-aminoethyl)-L-ornithinamide tris(hydroacetate)
tris(hydroacetate)
  step yield: 41% of theory

## rel-(8S,11S,14S)-14-Amino-11-(3-aminopropyl)-5,17-dihydroxy-N-[2-hydroxy-3-(L-ornithylamino)propyl]-10,13-dioxo-9,12-diazatricyclo[14.3.1.1^2,6]henicosa-1(20),2(21),3,5,16,18-hexaene-8-carboxamide tetrahydrotrifluoroacetate
Of theory, tetra(hydrotrifluoroacetate)
  step yield: 22% of theory
